Source: PubChem BioAssay
The list shows a part of the results, in another mix than the full data. Calls of active or inactive are those of the source.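 How the source made its calls: active means binding below the plate cutoff, the plate median minus 3 SD, with a reading above zero; inconclusive means below the plate cutoff but reading exactly zero; inactive means the rest.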

Test system: anti-desmoglein-3 scFv antibody binding to human DSG3
Experiment: inhibitors of anti-DSG3 scFv binding to DSG3, pilot screen, biochemical, validation compound set, bead-based, flow cytometry (AID 588368);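 further: signal is the median channel fluorescence of bead-bound GFP antibody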
Conditions: Protein G beads, DSG3-Fc, scFv-GFP binding, at 10 µM, hits give low values

Q: With CN[C@H]1C[C@H]2O[C@@](C)([C@H]1OC)n1c3ccccc3c3c4c(c5c6ccccc6n2c5c31)C(=O)NC4 as the compound, how does the binding (% of control) read?
A: Its binding (% of control) is inactive: 101%.
